According to patent publication US20220195047A1 (TCRCURE BIOPHARMA, published 2022):
Results are given in words; binding and its absence hold for the method and conditions named. Some results given as binding are weak or reduced against the parent protein; the word gives no strength.

Protein sequences, listed by entry. Tags and fused reporters are not part of them. Lines headed by an entry give the natural chain unless they say otherwise; changes in a name come on top.
UniProt Q15116: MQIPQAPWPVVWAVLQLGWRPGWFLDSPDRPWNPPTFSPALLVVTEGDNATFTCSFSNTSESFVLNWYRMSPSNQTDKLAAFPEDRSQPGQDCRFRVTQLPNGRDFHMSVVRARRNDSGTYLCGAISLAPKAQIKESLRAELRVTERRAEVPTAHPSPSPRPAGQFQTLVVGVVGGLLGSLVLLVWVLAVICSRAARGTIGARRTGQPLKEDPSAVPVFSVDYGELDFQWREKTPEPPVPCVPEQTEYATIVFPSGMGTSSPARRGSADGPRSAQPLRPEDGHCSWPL

Legend:
[1] = target: human PD-1 protein (hPD-1) on cell surface of 293T-PD-1 cells (human) (UniProt Q15116); experiment: flow cytometry on 293T-PD-1 cells
[2] = target: human PD-1 protein (hPD-1) on cell surface of 293T-PD-1 cells (human) (UniProt Q15116); experiment: flow cytometry on 293T-PD-1 cells, 4 C for 60 min, secondary FITC-anti-Mouse IgG F(ab')2; y axis hPD-1%
[3] = target: human PD-1 protein (hPD-1) on cell surface of 293T-PD-1 cells (human) (UniProt Q15116); experiment: immunocytochemistry staining of cells stably expressing PD-1; 293T cells as negative control (1:900)
[4] = target: T1, recombinant biotinylated human PD-1 (human, UniProt Q15116 25-170, limits assumed, biotinylated (site not stated)); experiment: ELISA: antibody coated at 5 ug/ml, 5-fold serial dilution of biotinylated rhPD-1 added, detection Sav-HRP; the concentration axis is that of rhPD-1
T1 construct: also called rhPD-1; recombinant human PD-1 protein

[5] = target: human PD-1 protein (hPD-1) on cell surface of 293T-PD-1 cells (human) (UniProt Q15116); experiment: immunofluorescent staining of PDCD1-stable-transfected HEK293T cells, nuclei labelled with Hoechst33342; 293T cells as negative control (1:100)
[6] = target: human PD-1 protein (hPD-1) on cell surface of 293T-PD-1 cells (human) (UniProt Q15116); experiment: Western blot of lysates of HEK-293T cells transfected with PDCD1 cDNA
[7] = target: human PD-1 protein (hPD-1) on cell surface of 293T-PD-1 cells (human) (UniProt Q15116); experiment: flow cytometry on cells stably expressing PD-1 (1:50)
[8] = target: human PD-1 protein (hPD-1) on cell surface of 293T-PD-1 cells (human) (UniProt Q15116); experiment: Western blot of HEK293T lysates, 5 ug per lane, SDS-PAGE, antibody 1:2000

- binding [1]: binds
- binding [2]: binds
- binding [3]: binds
- binding [4]: binds
- binding [5]: binds
- binding [6]: binds
- binding [7]: binds
- binding [8]: binds
B1: F02 anti-PD-1 antibody (antibody, V domains shown)
VH: QQPGAELVKPGASVKLSCRASGYTFTNYYLYWVKQRPGQGLEWIGGINPSNGGTNFNEKFRGKATLTVDKSSSTAYMQLSSLTSEDSAVYFCTRRDYNYDGGFDYWGQGSTLTVSS
VL: DIVLTQSPASLAVSLGQRATISCRASKSVSTSGFNYMHWYQQKPGQPPKLLIYLASNLDSGVPARFSGSGSGTDFTLNIHPVEEEDAATYYCQHGRELPLTFGAGTKLELRR
notes: Mouse monoclonal antibody from hybridoma clone #11, detected with anti-mouse IgG F(ab')2; Only the variable domains are tied to F02; also called anti-PD-1 antibody from hybridoma clone #11; clone #11
